In assay [1] the target is scaffoldin Scaf-c displayed on the yeast cell surface (chimeric: C. cellulolyticum cohesin with a CBD). The assay can be described thus: immunofluorescence microscopy with anti-His6, yeast displaying Scaf-c.
Assay [2] deals with scaffoldin Scaf-ct displayed on the yeast cell surface (chimeric: C. cellulolyticum, C. thermocellum). The assay is described as follows: immunofluorescence microscopy with anti-His6, yeast displaying Scaf-ct.

Results are given in words; binding and its absence hold for the method and conditions named. Some entries that bind do so weakly or less than the wild type. Where a sequence is shown, tags or fusion partners need not be part of it.

B1: exoglucanase CelE from C. cellulolyticum fused to a dockerin domain from the same species (Ec), His6-tagged (enzyme)
chain: MLVGAGDLIRNHTFDNRVGLPWHVVESYPAKASFEITSDGKYKITAQKIGEAGKGERWDIQFRHRGLALQQGHTYTVKFTVTASRACKIYPKIGDQGDPYDEYWNMNQQWNFLELQANTPKTVTQTFTQTKGDKKNVEFAFHLAPDKTTSEAQNPASFQPITYTFDEIYIQDPQFAGYTEDPPEPTNVVRLNQVGFYPNADKIATVATSSTTPINWQLVNSTGAAVLTGKSTVKGADRASGDNVHIIDFSSYTTPGTDYKIVTDVSVTKAGDNESMKFNIGDDLFTQMKYDSMKYFYHNRSAIPIQMPYCDQSQWARPAGHTTDILAPDPTKDYKANYTLDVTGGWYDAGDHGKYVVNGGIATWTVMNAYERALHMGGDTSVAPFKDGSLAIPEAEVYPDILDEARYQLINMKTLLNSQVPAGKYAGMAHHKAHDERWTALAVRPDQDTMKRWLQPPSTAATLNLAAIAAQSSRLWKQFDSAFATKCLTAAETARDAAVAHPEIYATMEQGAGGGAYGDNYVLDDFYWAACELYATTGSDKYLNYIKSSKHYLEMPTELTGGENTGITGAFDWGCTAGMGTITLALVPTKLPAADVATAKANIQAAADKFISISKAQGYGVPLEEKVISSPFDASVVKGFQWGSNSFVINEAIVMSYAYEFSDVNGTKNNKYINGALTAMDYLLGRNPNIQSYITGYGDNPLENPHHRFWAYQADNTFPKPPPGCLSGGPNSGLQDPWVKGSGWQPGERPAEKCFMDNIESWSTNEITINWNAPLVWISAYLDEKGPEIGGSVTPPTNLGDVNGDGNKDALDFAALKKALLSQDTSTINVANADINKDGSIDAVDFALLKSFLLGKITQHHHHHH
notes: Expressed in E. coli and used as cell lysate or purified; also called CelE-Dc
Regarding B1, the binding entry in assay [1] and in assay [2] was “binds” throughout.
